The other results are listed elsewhere or left out.
Key:
Test in all cases: glycan array binding signal (z-score within array); higher = stronger binding
Details in all cases: glycan notation: IUPAC condensed, linker removed
[1] = target: Gal(b1-4)GlcNAc(b1-3)Gal(b1-4)GlcNAc(b1-3)Gal(b1-4)GlcNAc
How it was run: (§1)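 The binding signal is a Z-score computed within each array. Data were drawn from 3228 arrays in the Consortium for Functional Glycomics database, restricted to those with a known protein sequence. Scores were averaged over arrays of the same protein sequence at different concentrations or buffers, and over linkers, and negative values can be taken as non-binding.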

[2] = target: Gal(b1-4)GlcNAc(b1-3)Gal(b1-4)GlcNAc(b1-3)Gal(b1-4)GlcNAc(b1-2)Man(a1-3)[Gal(b1-4)GlcNAc(b1-3)Gal(b1-4)GlcNAc(b1-3)Gal(b1-4)GlcNAc(b1-2)Man(a1-6)]Man(b1-4)GlcNAc(b1-4)GlcNAc
How it was run: as §1

[3] = target: Gal(b1-4)GlcNAc(b1-3)Gal(b1-4)GlcNAc(b1-3)Gal(b1-4)GlcNAc(b1-2)Man(a1-3)[Gal(b1-4)GlcNAc(b1-3)Gal(b1-4)GlcNAc(b1-3)Gal(b1-4)GlcNAc(b1-2)Man(a1-6)]Man(b1-4)GlcNAc(b1-4)[Fuc(a1-6)]GlcNAc
How it was run: as §1

[4] = target: Gal(b1-4)GlcNAc(b1-3)Gal(b1-4)GlcNAc(b1-3)Gal(b1-4)GlcNAc(b1-2)[Gal(b1-4)GlcNAc(b1-3)Gal(b1-4)GlcNAc(b1-3)Gal(b1-4)GlcNAc(b1-6)]Man(a1-6)[Gal(b1-4)GlcNAc(b1-3)Gal(b1-4)GlcNAc(b1-3)Gal(b1-4)GlcNAc(b1-2)Man(a1-3)]Man(b1-4)GlcNAc(b1-4)[Fuc(a1-6)]GlcNAc
How it was run: as §1

[5] = target: Gal(b1-4)GlcNAc(b1-3)Gal(b1-4)GlcNAc(b1-3)Gal(b1-4)GlcNAc(b1-3)Gal(b1-4)GlcNAc(b1-2)Man(a1-3)[Gal(b1-4)GlcNAc(b1-3)Gal(b1-4)GlcNAc(b1-3)Gal(b1-4)GlcNAc(b1-3)Gal(b1-4)GlcNAc(b1-2)Man(a1-6)]Man(b1-4)GlcNAc(b1-4)GlcNAc
How it was run: as §1

[6] = target: Gal(b1-4)GlcNAc(b1-3)Gal(b1-4)GlcNAc(b1-3)Gal(b1-4)GlcNAc(b1-3)Gal(b1-4)GlcNAc(b1-2)Man(a1-3)[Gal(b1-4)GlcNAc(b1-3)Gal(b1-4)GlcNAc(b1-3)Gal(b1-4)GlcNAc(b1-3)Gal(b1-4)GlcNAc(b1-2)Man(a1-6)]Man(b1-4)GlcNAc(b1-4)[Fuc(a1-6)]GlcNAc
How it was run: as §1

[7] = target: Gal(b1-4)GlcNAc(b1-3)Gal(b1-4)GlcNAc(b1-3)Gal(b1-4)GlcNAc(b1-3)Gal(b1-4)GlcNAc(b1-2)[Gal(b1-4)GlcNAc(b1-3)Gal(b1-4)GlcNAc(b1-3)Gal(b1-4)GlcNAc(b1-3)Gal(b1-4)GlcNAc(b1-6)]Man(a1-6)[Gal(b1-4)GlcNAc(b1-3)Gal(b1-4)GlcNAc(b1-3)Gal(b1-4)GlcNAc(b1-3)Gal(b1-4)GlcNAc(b1-2)Man(a1-3)]Man(b1-4)GlcNAc(b1-4)[Fuc(a1-6)]GlcNAc
How it was run: as §1

[8] = target: Gal(b1-4)GlcNAc(b1-3)Gal(b1-4)GlcNAc(b1-3)Gal(b1-4)GlcNAc(b1-3)Gal(b1-4)GlcNAc(b1-3)Gal(b1-4)GlcNAc(b1-2)Man(a1-3)[Gal(b1-4)GlcNAc(b1-3)Gal(b1-4)GlcNAc(b1-3)Gal(b1-4)GlcNAc(b1-3)Gal(b1-4)GlcNAc(b1-3)Gal(b1-4)GlcNAc(b1-2)Man(a1-6)]Man(b1-4)GlcNAc(b1-4)GlcNAc
How it was run: as §1

[9] = target: Gal(b1-4)GlcNAc(b1-3)Gal(b1-4)GlcNAc(b1-3)Gal(b1-4)GlcNAc(b1-3)Gal(b1-4)GlcNAc(b1-3)Gal(b1-4)GlcNAc(b1-2)Man(a1-3)[Gal(b1-4)GlcNAc(b1-3)Gal(b1-4)GlcNAc(b1-3)Gal(b1-4)GlcNAc(b1-3)Gal(b1-4)GlcNAc(b1-3)Gal(b1-4)GlcNAc(b1-2)Man(a1-6)]Man(b1-4)GlcNAc(b1-4)[Fuc(a1-6)]GlcNAc
How it was run: as §1

[10] = target: Gal(b1-4)GlcNAc(b1-3)Gal(b1-4)GlcNAc(b1-3)Gal(b1-4)GlcNAc(b1-3)Gal(b1-4)GlcNAc(b1-3)Gal(b1-4)GlcNAc(b1-2)[Gal(b1-4)GlcNAc(b1-3)Gal(b1-4)GlcNAc(b1-3)Gal(b1-4)GlcNAc(b1-3)Gal(b1-4)GlcNAc(b1-3)Gal(b1-4)GlcNAc(b1-6)]Man(a1-6)[Gal(b1-4)GlcNAc(b1-3)Gal(b1-4)GlcNAc(b1-3)Gal(b1-4)GlcNAc(b1-3)Gal(b1-4)GlcNAc(b1-3)Gal(b1-4)GlcNAc(b1-2)Man(a1-3)]Man(b1-4)GlcNAc(b1-4)[Fuc(a1-6)]GlcNAc
How it was run: as §1

[11] = target: Gal(b1-4)GlcNAc(b1-3)Gal(b1-4)GlcNAc(b1-3)Gal(b1-4)GlcNAc(b1-3)Gal(b1-4)GlcNAc(b1-3)Gal(b1-4)GlcNAc(b1-3)Gal(b1-4)GlcNAc(b1-2)Man(a1-3)[Gal(b1-4)GlcNAc(b1-3)Gal(b1-4)GlcNAc(b1-3)Gal(b1-4)GlcNAc(b1-3)Gal(b1-4)GlcNAc(b1-3)Gal(b1-4)GlcNAc(b1-3)Gal(b1-4)GlcNAc(b1-2)Man(a1-6)]Man(b1-4)GlcNAc(b1-4)GlcNAc
How it was run: as §1

[12] = target: Gal(b1-4)GlcNAc(b1-3)Gal(b1-4)GlcNAc(b1-3)GalNAc
How it was run: as §1

[13] = target: Gal(b1-4)GlcNAc(b1-3)Gal(b1-4)GlcNAc(b1-3)[Gal(b1-4)GlcNAc(b1-3)Gal(b1-4)GlcNAc(b1-6)]GalNAc
How it was run: as §1

[14] = target: Gal(b1-4)GlcNAc(b1-3)Gal(b1-4)GlcNAc(b1-6)[Gal(b1-3)]GalNAc
How it was run: as §1

[15] = target: Gal(b1-4)GlcNAc(b1-3)Gal(b1-4)[Fuc(a1-3)GlcNAc(b1-6)]Gal(b1-4)Glc
How it was run: as §1

[16] = target: Gal(b1-4)GlcNAc(b1-3)Gal(b1-4)[Fuc(a1-3)]GlcNAc(b1-3)Gal(b1-4)[Fuc(a1-3)]GlcNAc
How it was run: as §1

[17] = target: Gal(b1-4)GlcNAc(b1-3)GalNAc
How it was run: as §1

[18] = target: Gal(b1-4)GlcNAc(b1-3)[Fuc(a1-3)GlcNAc(b1-6)]Gal(b1-4)Glc
How it was run: as §1

[19] = target: Gal(b1-4)GlcNAc(b1-3)[Gal(b1-4)GlcNAc(b1-6)]Gal(b1-4)GlcNAc
How it was run: as §1

[20] = target: Gal(b1-4)GlcNAc(b1-3)[Gal(b1-4)GlcNAc(b1-6)]GalNAc
How it was run: as §1

[21] = target: Gal(b1-4)GlcNAc(b1-3)[GlcNAc(b1-6)]Gal(b1-4)GlcNAc
How it was run: as §1

[22] = target: Gal(b1-4)GlcNAc(b1-6)Gal(b1-4)GlcNAc
How it was run: as §1

[23] = target: Gal(b1-4)GlcNAc(b1-6)GalNAc
How it was run: as §1

[24] = target: Gal(b1-4)GlcNAc(b1-6)[Gal(b1-3)]GalNAc
How it was run: as §1

[25] = target: Gal(b1-4)GlcNAc(b1-6)[Gal(b1-4)GlcNAc(b1-3)]GalNAc
How it was run: as §1

[26] = target: Gal(b1-4)GlcNAc6P
How it was run: as §1

[27] = target: Gal(b1-6)Gal
How it was run: as §1

[28] = target: Gal3S(b1-3)GalNAc
How it was run: as §1

[29] = target: Gal3S(b1-3)GlcNAc
How it was run: as §1

[30] = target: Gal3S(b1-3)[Fuc(a1-4)]GlcNAc
How it was run: as §1

[31] = target: Gal3S(b1-4)Glc
How it was run: as §1

[32] = target: Gal3S(b1-4)Glc6S
How it was run: as §1

[33] = target: Gal3S(b1-4)GlcNAc
How it was run: as §1

[34] = target: Gal3S(b1-4)GlcNAc6S
How it was run: as §1

[35] = target: Gal3S(b1-4)[Fuc(a1-3)]Glc
How it was run: as §1

[36] = target: Gal3S(b1-4)[Fuc(a1-3)]Glc6S
How it was run: as §1

[37] = target: Gal3S(b1-4)[Fuc(a1-3)]GlcNAc
How it was run: as §1

B1: MFG-E8 (Mus musculus), P21956 (protein)
chain: MQVSRVLAALCGMLLCASGLFAASGDFCDSSLCLNGGTCLTGQDNDIYCLCPEGFTGLVCNETERGPCSPNPCYNDAKCLVTLDTQRGDIFTEYICQCPVGYSGIHCETETNYYNLDGEYMFTTAVPNTAVPTPAPTPDLSNNLASRCSTQLGMEGGAIADSQISASSVYMGFMGLQRWGPELARLYRTGIVNAWTASNYDSKPWIQVNLLRKMRVSGVMTQGASRAGRAEYLKTFKVAYSLDGRKFEFIQDESGGDKEFLGNLDNNSLKVNMFNPTLEAQYIKLYPVSCHRGCTLRFELLGCELHGCSEPLGLKNNTIPDSQMSASSSYKTWNLRAFGWYPHLGRLDNQGKINAWTAQSNSAKEWLQVDLGTQRQVTGIITQGARDFGHIQYVASYKVAHSDDGVQWTVYEEQGSSKVFQGNLDNNSHKKNIFEKPFMARYVRVLPVSWHNRITLRLELLGC
glycan array binding signal (z-score) [1]: -0.102
glycan array binding signal (z-score) [2]: 0.078
glycan array binding signal (z-score) [3]: -0.153
glycan array binding signal (z-score) [4]: -0.06
glycan array binding signal (z-score) [5]: -0.267
glycan array binding signal (z-score) [6]: 0.631
glycan array binding signal (z-score) [7]: 0.053
glycan array binding signal (z-score) [8]: -0.313
glycan array binding signal (z-score) [9]: 0.485
glycan array binding signal (z-score) [10]: -0.342
glycan array binding signal (z-score) [11]: -0.636
glycan array binding signal (z-score) [12]: 1.43
glycan array binding signal (z-score) [13]: 0.32
glycan array binding signal (z-score) [14]: -0.243
glycan array binding signal (z-score) [15]: 0.944
glycan array binding signal (z-score) [16]: -0.16
glycan array binding signal (z-score) [17]: -0.613
glycan array binding signal (z-score) [18]: -0.543
glycan array binding signal (z-score) [19]: 0.308
glycan array binding signal (z-score) [20]: 0.578
glycan array binding signal (z-score) [21]: -0.605
glycan array binding signal (z-score) [22]: -0.115
glycan array binding signal (z-score) [23]: 0.24
glycan array binding signal (z-score) [24]: -0.422
glycan array binding signal (z-score) [25]: -0.419
glycan array binding signal (z-score) [26]: 0.187
glycan array binding signal (z-score) [27]: 1.1
glycan array binding signal (z-score) [28]: -0.932
glycan array binding signal (z-score) [29]: -0.17
glycan array binding signal (z-score) [30]: 0.267
glycan array binding signal (z-score) [31]: -0.159
glycan array binding signal (z-score) [32]: 0.198
glycan array binding signal (z-score) [33]: -0.46
glycan array binding signal (z-score) [34]: -0.639
glycan array binding signal (z-score) [35]: -0.908
glycan array binding signal (z-score) [36]: 0.661
glycan array binding signal (z-score) [37]: 0.745

From the supplement of paper PMC8728848
